According to publication PMC4240209:
Results are given in words; binding and its absence hold for the method and conditions named. Binding seen in cells or lysates may run through a third protein. Some binding calls cover weakened binding; strength is not graded here. Tags and fused reporters may be left off the sequences shown.

Columns and labels:
[1] = biological target: untagged WT rod opsin (Rho) (UniProt P02699); assay: co-IP; SK-N-SH cells co-transfected with untagged rod opsin and ERdj5-HA constructs, 24 h; lysis in 1% DM, 5 mM EDTA in PBS; lysates incubated 2 h with 1D4 antibody against rod opsin (or control IgG) and protein G Dynabeads; blot with anti-HA
[2] = biological target: untagged P23H rod opsin (Rho(P23H)) (UniProt P02699); assay: as above

B1: ERdj5-HA (enzyme, UniProt Q8IXB1 33-793)
chain: DQDFYSLLGVSKTASSREIRQAFKKLALKLHPDKNPNNPNAHGDFLKINRAYEVLKDEDLRKKYDKYGEKGLEDNQGGQYESWNYYRYDFGIYDDDPEIITLERREFDAAVNSGELWFVNFYSPGCSHCHDLAPTWRDFAKEVDGLLRIGAVNCGDDRMLCRMKGVNSYPSLFIFRSGMAPVKYHGDRSKESLVSFAMQHVRSTVTELWTGNFVNSIQTAFAAGIGWLITFCSKGGDCLTSQTRLRLSGMLDGLVNVGWMDCATQDNLCKSLDITTSTTAYFPPGATLNNKEKNSILFLNSLDAKEIYLEVIHNLPDFELLSANTLEDRLAHHRWLLFFHFGKNENSNDPELKKLKTLLKNDHIQVGRFDCSSAPDICSNLYVFQPSLAVFKGQGTKEYEIHHGKKILYDILAFAKESVNSHVTTLGPQNFPANDKEPWLVDFFAPWCPPCRALLPELRRASNLLYGQLKFGTLDCTVHEGLCNMYNIQAYPTTVVFNQSNIHEYEGHHSAEQILEFIEDLMNPSVVSLTPTTFNELVTQRKHNEVWMVDFYSPWCHPCQVLMPEWKRMARTLTGLINVGSIDCQQYHSFCAQENVQRYPEIRFFPPKSNKAYHYHSYNGWNRDAYSLRIWGLGFLPQVSTDLTPQTFSEKVLQGKNHWVIDFYAPWCGPCQNFAPEFELLARMIKGKVKAGKVDCQAYAQTCQKAGIRAYPTVKFYFYERAKRNFQEEQINTRDAKAIAALISEKLETLRNQGKRNKDEL
binding [1]: binds | binding [2]: binds
